# Results as given in patent US9694002B2, “Substituted benzamides and methods of use thereof” (GENENTECH, INC., priority 2013, dated 2017).
# Amino acid sequences for entries named in this document (tags omitted).
# UniProt Q15858, whole entry: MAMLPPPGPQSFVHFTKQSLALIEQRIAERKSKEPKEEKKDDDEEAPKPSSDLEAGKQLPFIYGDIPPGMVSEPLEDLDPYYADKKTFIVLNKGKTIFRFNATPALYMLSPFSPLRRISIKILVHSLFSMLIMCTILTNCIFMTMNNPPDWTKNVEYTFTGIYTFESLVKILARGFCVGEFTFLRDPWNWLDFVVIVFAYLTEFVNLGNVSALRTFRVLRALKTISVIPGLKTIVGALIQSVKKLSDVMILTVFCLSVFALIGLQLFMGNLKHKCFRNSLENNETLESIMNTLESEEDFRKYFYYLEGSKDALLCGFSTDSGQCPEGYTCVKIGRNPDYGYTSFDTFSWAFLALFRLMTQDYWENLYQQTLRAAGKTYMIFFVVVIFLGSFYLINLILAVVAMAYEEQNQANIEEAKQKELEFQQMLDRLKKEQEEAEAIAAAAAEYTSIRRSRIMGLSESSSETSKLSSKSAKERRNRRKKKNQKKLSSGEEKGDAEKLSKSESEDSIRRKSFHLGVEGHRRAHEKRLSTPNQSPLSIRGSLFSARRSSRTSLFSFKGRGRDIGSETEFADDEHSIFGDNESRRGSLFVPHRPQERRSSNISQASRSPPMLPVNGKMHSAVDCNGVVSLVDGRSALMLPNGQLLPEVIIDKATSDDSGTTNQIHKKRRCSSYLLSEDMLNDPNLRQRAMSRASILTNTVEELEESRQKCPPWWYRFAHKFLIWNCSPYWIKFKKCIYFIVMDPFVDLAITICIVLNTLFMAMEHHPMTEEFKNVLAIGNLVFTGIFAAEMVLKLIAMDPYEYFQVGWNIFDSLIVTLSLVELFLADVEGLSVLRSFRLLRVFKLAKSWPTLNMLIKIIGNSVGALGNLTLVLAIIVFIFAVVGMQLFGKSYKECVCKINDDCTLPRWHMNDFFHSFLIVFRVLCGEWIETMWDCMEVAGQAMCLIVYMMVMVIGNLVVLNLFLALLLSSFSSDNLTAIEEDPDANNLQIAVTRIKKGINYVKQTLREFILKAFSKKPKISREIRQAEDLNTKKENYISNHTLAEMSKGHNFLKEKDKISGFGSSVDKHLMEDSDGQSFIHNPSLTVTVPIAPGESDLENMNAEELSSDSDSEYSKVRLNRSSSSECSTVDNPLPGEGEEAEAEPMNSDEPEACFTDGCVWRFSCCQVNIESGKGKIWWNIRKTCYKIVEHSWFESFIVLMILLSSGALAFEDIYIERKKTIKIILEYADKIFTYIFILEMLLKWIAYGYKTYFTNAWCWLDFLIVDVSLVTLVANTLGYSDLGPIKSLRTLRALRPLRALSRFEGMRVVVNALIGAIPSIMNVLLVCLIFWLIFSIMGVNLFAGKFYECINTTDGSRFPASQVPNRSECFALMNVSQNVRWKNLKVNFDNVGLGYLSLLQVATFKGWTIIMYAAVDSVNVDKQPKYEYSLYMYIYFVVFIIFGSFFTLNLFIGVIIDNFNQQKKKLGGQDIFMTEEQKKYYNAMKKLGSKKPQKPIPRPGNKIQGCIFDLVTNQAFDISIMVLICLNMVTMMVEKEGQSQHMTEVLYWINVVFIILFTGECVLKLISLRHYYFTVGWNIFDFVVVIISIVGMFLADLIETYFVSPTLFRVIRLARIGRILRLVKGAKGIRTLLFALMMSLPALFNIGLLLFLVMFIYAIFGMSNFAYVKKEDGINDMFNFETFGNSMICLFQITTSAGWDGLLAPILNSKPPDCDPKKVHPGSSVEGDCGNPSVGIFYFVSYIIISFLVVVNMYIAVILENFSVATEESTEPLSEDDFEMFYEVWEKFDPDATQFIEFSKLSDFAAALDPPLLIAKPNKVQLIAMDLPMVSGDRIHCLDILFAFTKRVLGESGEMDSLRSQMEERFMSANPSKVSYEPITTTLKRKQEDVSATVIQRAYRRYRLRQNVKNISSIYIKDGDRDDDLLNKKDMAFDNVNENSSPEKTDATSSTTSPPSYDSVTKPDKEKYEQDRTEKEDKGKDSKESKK
# Where a name gives a salt, the structure may show the parent alone. At least one compound was matched to its structure with a doubt left.
# Biological target: hNav1.7 (Homo sapiens (Human), UniProt Q15858)
# Experiment: Ligand binding assay: tritiated sulfonamide binding to membranes from cells expressing hNav1.7 and the β1 subunit
# Settings: read-out: Ligand Binding Assay; competition with 100 pM [3H]compound, membranes with hNav1.7 and β1 subunit, room temperature, 18 h
structure (smiles),measurement,value
"CS(=O)(=O)NC(=O)c1cc(C2CC2)c(CN2C[C@@H]3C[C@H]2CN3S(=O)(=O)c2cc(Cl)cc(Cl)c2)cc1F [Example 558, 5-cyclopropyl-4-(((1S,4S)-5-((3,5-dichlorophenyl)sulfonyl)-2,5-diazabicyclo[2.2.1]heptan-2-yl)methyl)-2-fluoro-N-(methylsulfonyl)benzamide, trifluoroacetic acid salt]",IC50,37.1 nM
